Measured values published in PubChem BioAssay AID504327 (National Center for Advancing Translational Sciences (NCATS), 2011).
Hit rate of the full screen: of about 390,000 compounds, about 820 (0.21%) were called active. Inconclusive results, whose numbers are uncertain, are shown with a selection of clear calls. The call rests on the fitted dose curve; in most records, active means well fitted inhibition curve with a large enough effect; inconclusive means small, poorly fitted or top-dose-only effect, or another doubt; inactive means no such curve, though single readings can be large or run the other way. Potencies beside an inconclusive call are fits to weak or partial responses and may not hold up.

Protein sequences, listed by entry. Tags and fused reporters are not part of them.
UniProt Q92830, whole entry, looked up: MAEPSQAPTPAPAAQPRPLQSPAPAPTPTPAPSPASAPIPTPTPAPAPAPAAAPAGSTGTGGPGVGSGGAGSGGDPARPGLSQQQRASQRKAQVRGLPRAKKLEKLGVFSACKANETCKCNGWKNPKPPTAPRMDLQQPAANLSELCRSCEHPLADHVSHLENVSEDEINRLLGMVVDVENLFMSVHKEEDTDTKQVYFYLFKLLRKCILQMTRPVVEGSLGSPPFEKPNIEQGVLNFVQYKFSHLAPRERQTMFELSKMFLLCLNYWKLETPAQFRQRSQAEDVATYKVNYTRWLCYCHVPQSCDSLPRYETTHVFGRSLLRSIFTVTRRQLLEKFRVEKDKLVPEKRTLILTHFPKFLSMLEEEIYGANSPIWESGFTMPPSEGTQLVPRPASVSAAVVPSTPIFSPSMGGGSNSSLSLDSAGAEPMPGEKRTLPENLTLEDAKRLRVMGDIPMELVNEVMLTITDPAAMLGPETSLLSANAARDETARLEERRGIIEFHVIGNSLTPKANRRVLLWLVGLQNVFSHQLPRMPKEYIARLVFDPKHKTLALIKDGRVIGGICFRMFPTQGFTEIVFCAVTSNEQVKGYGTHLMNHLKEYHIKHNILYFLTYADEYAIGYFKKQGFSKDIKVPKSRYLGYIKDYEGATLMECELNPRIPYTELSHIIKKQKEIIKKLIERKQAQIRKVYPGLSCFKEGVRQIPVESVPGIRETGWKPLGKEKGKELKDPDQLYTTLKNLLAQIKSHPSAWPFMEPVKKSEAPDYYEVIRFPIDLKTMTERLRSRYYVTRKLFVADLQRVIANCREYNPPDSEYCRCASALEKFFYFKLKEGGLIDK

These molecules were tested against Histone acetyltransferase KAT2A (Homo sapiens) (UniProt Q92830) (assay: qHTS Assay for Inhibitors of GCN5L2). Conditions: GCN5L2 HAT assay, ThioGlo1 CoA-SH fluorescence; activity change, negative = inhibition: at 58.9 µM (top of the series) unless noted.
How it was run: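 Enzyme at 20nM final was mixed with library compounds for 15 min at room temperature. Peptide H3(1-25) at 75uM, acetyl-CoA at 70uM and ThioGlo1 at 50uM were then added. Plates were read immediately and after 20 min (Ex340nm/Em540nm).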
On the % scale 0 is the no-effect control and ±100 the full control effect; potency means the concentration at half of the fitted maximal effect.

SMILES	Potency	activity change, negative = inhibition
COC(=O)C1(Cc2cc(-c3ccccc3)no2)CCN(C(=O)OC(C)(C)C)CC1	inconclusive: 11.2 µM [inhibitor, partial curve]	–
COCC(=O)N/N=C\c1ccc(OC/C=C/c2ccccc2)c(OC)c1	–	inactive: -2.98%
COc1ccc(C(=O)N2c3cc4c(cc3C(C)=CC2(C)C)OCO4)cc1	–	inactive: -5.5%
Cc1ccc(NC(=O)N2CCC(CN3CCCC3)CC2)c(C)c1	–	inactive: -0.152%
CC(=O)C1C(c2ccc(F)cc2)NC(=O)NC1(O)C(F)(F)F (configuration not stated)	inconclusive: 0.794 µM [inhibitor, single point]	–
COCCN1Cc2cccc(C(=O)Nc3cccc(OC)c3)c2C1=O	inconclusive: 8.91 µM [inhibitor, single point]	–
COc1cccc(OCC(=O)Nc2c3c(nn2-c2ccc(F)cc2)CS(=O)(=O)C3)c1	inconclusive: 35.5 µM [inhibitor, single point]	–
Cc1cccc(-n2cnc3sc(C)c(C)c3c2=O)c1	inconclusive: 39.8 µM [inhibitor, single point]	–
Cc1ccc2cc(C(c3nnnn3Cc3ccccc3)N3CCN(c4ccccc4)CC3)c(=O)[nH]c2c1 (configuration not stated)	inconclusive: 31.6 µM [inhibitor, single point]	–
Cc1ncc(CO)c(C=O)c1O	inconclusive: 31.6 µM [inhibitor, single point]	–
COc1ccc(CNC(=O)C(c2ccc(C)cc2)N(Cc2cccs2)C(=O)c2ccc3c(c2)OCCO3)cc1 (configuration not stated)	inconclusive: 0.126 µM [inhibitor, full curve, poor fit]	–
COc1cccc(NC(=O)CSc2nnc(-c3ccco3)c(-c3ccco3)n2)c1	inconclusive: 35.5 µM [inhibitor, single point]	–
Cc1cccc(NC(=O)CSc2nnc(-c3ccco3)c(-c3ccco3)n2)c1C	inconclusive: 35.5 µM [inhibitor, single point]	–
Cc1cc(N/C=C(\C#N)S(=O)(=O)c2ccccc2Cl)nc(C)n1	inconclusive: 0.794 µM [inhibitor, single point]	–
CC(C)(C)NC(=O)C(c1ccc(O)cc1)N(C(=O)CCC(=O)Nc1nccs1)c1cccc(F)c1 (configuration not stated)	inconclusive: 0.316 µM [inhibitor, full curve, poor fit]	–
COc1ccc(C2=NS(=O)(=O)N(C)C(C(=O)Nc3ccc(C)cc3)=C2)cc1	inconclusive: 0.708 µM [inhibitor, single point]	–
COc1ccc(C2/C=C\C(c3ccc(OC)cc3)N(Cc3ccc(F)cc3)C(=O)C(=O)N2Cc2ccc(F)cc2)cc1 (configuration not stated)	inconclusive: 22.4 µM [inhibitor, partial curve]	–
Cc1ccc(S(=O)(=O)c2cc3ccc(O)cc3oc2=O)cc1C	inconclusive: 31.6 µM [inhibitor, single point]	–
CCN(CCO)c1nc(SC)nc2c1sc1nc(-c3ccco3)c3c(c12)CCC3	inconclusive: 0.501 µM [inhibitor, full curve, poor fit]	–
CCc1nc2ccc(C(=O)N3CCN(c4cc(C)ccc4C)CC3)cc2nc1CC	inactive	–
Cc1ccc(/C=C/C(=O)N2CCC(c3nc4ccccc4o3)CC2)cc1	–	inactive: -1.99%
O=[N+]([O-])c1cc([N+](=O)[O-])c2c(=Nc3ccccc3)n(-c3ccccc3)n(O)c2c1	inconclusive: 35.5 µM [inhibitor, single point]	–
COc1ccccc1NC(=O)CSc1ccc(-c2ccco2)nn1	inconclusive: 0.708 µM [inhibitor, full curve]	–

Copied from the listing (5 entries):
SMILES	Potency	activity change, negative = inhibition
COc1cccc(NC(=O)CSc2nnc(-c3ccco3)c(-c3ccco3)n2)c1	inconclusive: 35.5 µM [inhibitor, single point]	–
Cc1cccc(NC(=O)CSc2nnc(-c3ccco3)c(-c3ccco3)n2)c1C	inconclusive: 35.5 µM [inhibitor, single point]	–
Cc1cc(N/C=C(\C#N)S(=O)(=O)c2ccccc2Cl)nc(C)n1	inconclusive: 0.794 µM [inhibitor, single point]	–
CC(C)(C)NC(=O)C(c1ccc(O)cc1)N(C(=O)CCC(=O)Nc1nccs1)c1cccc(F)c1 (configuration not stated)	inconclusive: 0.316 µM [inhibitor, full curve, poor fit]	–
COc1ccc(C2=NS(=O)(=O)N(C)C(C(=O)Nc3ccc(C)cc3)=C2)cc1	inconclusive: 0.708 µM [inhibitor, single point]	–

The results go on:

SMILES	Potency	activity change, negative = inhibition
COc1ccccc1NC(=O)CSc1ccc(-c2ccccn2)nn1	inconclusive: 2.24 µM [inhibitor, partial curve]	–
C=CCc1cccc2cc(C(=O)Nc3ccccc3C(=O)O)c(=O)oc12	inconclusive: 14.1 µM [inhibitor, partial curve]	–
N#C/C(=C\c1c(N2CCCCCC2)nc2ccccn2c1=O)C(=O)NC1CCS(=O)(=O)C1 (configuration not stated)	–	inactive: -0.025%
Cn1ncc(Cl)c(Oc2ccccc2)c1=O	inconclusive: 0.708 µM [inhibitor, single point]	–
CC1CCCC(C)N1C(=O)CN1C(=O)NC2(CCOc3ccccc32)C1=O (configuration not stated)	inconclusive: 10 µM [inhibitor, partial curve]	–
C#CCCCCCCC#CCN(C)C	–	inactive: -1.42%
Cc1c(Cl)cccc1NC(=S)/C(=C(\[O-])c1ccc(Cl)s1)[n+]1ccccc1	–	inactive: -2.28%
CC(C)[C@@H](C(=O)NC1CCCC1)N1C(=O)N2CCc3c([nH]c4ccccc34)[C@@]2(C)C1=O	–	inactive: -10.1%
S=C1CSc2ccccc2N1	inconclusive: 0.708 µM [inhibitor, single point]	–
Cc1cccc(Cl)c1NC(=S)NCCc1ccccn1	inconclusive: 5.01 µM [inhibitor, full curve]	–
CCOC(=O)N1CCN(C(=O)CCc2nc3sc4c(c3c(=O)[nH]2)CCCC4)CC1	–	inactive: -0.899%
COc1ccc(N2CCN(C3CCCN(Cc4cccc(C)c4)C3)CC2)cc1 (configuration not stated)	inconclusive: 0.708 µM [inhibitor, single point]	–
CCOc1ccc(N2CC(C(=O)NCCC3=CCCCC3)CC2=O)cc1 (configuration not stated)	inconclusive: 7.08 µM [inhibitor, single point]	–
CN(C)Cc1nc(-c2cn(C)c3ccccc23)no1	inconclusive: 35.5 µM [inhibitor, single point]	–
O=C(COc1ccc(Br)cc1)N1CCNC1=O	inconclusive: 1 µM [inhibitor, full curve]	–
CCOc1ccc(NC(=O)Cc2c(O)c3ccccc3[nH]c2=O)cc1	inconclusive: 39.8 µM [inhibitor, single point]	–
CC(=O)c1ccc(NC(=O)CSc2nnc(-c3ccco3)c(-c3ccco3)n2)cc1	inconclusive: 31.6 µM [inhibitor, single point]	–
CCOc1ccc(NC(=S)NC(=O)c2cnn(CC)c2)c([N+](=O)[O-])c1	inconclusive: 3.98 µM [inhibitor, single point]	–
CC[C@@H](C)[C@H](NC(=O)CCc1c(C)c2cc3c4c(oc3c(C)c2oc1=O)CCCC4)C(=O)O	inconclusive: 0.794 µM [inhibitor, full curve, poor fit]	–
CCNc1ncc2nc(CCc3ccccc3)c(=O)n(-c3ccccc3)c2n1	inconclusive: 15.8 µM [inhibitor, partial curve]	–
O=C(CSCc1nc2scc(-c3cccs3)c2c(=O)[nH]1)Nc1ccccn1	inconclusive: 1 µM [inhibitor, full curve, poor fit]	–
O=C(COc1cccc(F)c1)NNC(=O)c1cccc(-n2cccc2)c1	inconclusive: 14.1 µM [inhibitor, partial curve]	–
FC(F)(F)c1cc(-c2ccco2)nc(NCc2cccnc2)n1	inconclusive: 12.6 µM [inhibitor, partial curve, poor fit]	–

SMILES	Potency	activity change, negative = inhibition
CCOc1cc(/C=C2\C(=N)N3N=C(S(C)(=O)=O)SC3=NC2=O)ccc1OCCOc1cccc(OC)c1	inconclusive: 28.2 µM [inhibitor, single point]	–
COc1ccccc1OCC(=O)N/N=C1\CCCCc2ccccc21	inconclusive: 0.316 µM [inhibitor, full curve, poor fit]	–
COc1cccc(C2CC(=O)N3CN(c4ccccc4F)CSC3=C2C#N)c1 (configuration not stated)	active: 15.8 µM	–
CCCOc1cccc(-c2cc(C(=O)NN)c3ccccc3n2)c1	–	inactive: 0.921%
Cc1ccc2nc3c(cc(C(=O)NC4CCS(=O)(=O)C4)n3Cc3ccccc3)c(=O)n2c1 (configuration not stated)	inconclusive: 39.8 µM [inhibitor, partial curve]	–
COc1ccc2c(C(=O)NCCCCO)c(-c3ccc(S(C)(=O)=O)cc3)sc2c1	inconclusive: 25.1 µM [inhibitor, partial curve]	–
Cc1cccc(/C=N/n2c(-c3ccncc3)n[nH]c2=S)c1	inconclusive: 39.8 µM [inhibitor, single point]	–
COc1ccc(NS(=O)(=O)c2cc(NC(=O)c3ccncc3)ccc2N2CCOCC2)cc1	–	inactive: -2.91%
CC(C)c1ccc(NC(=O)Cc2ccc(NC(=O)N3CCCCc4ccccc43)cc2)cc1	–	inactive: -17.6%
C/C(=N\NC(=S)Nc1ccc(C)c(C)c1)c1ccc(N2CCOCC2)cc1	inconclusive: 5.62 µM [inhibitor, partial curve]	–
CCOC(=O)C[n+]1ccc2c([nH]c3ccccc32)c1C	inconclusive: 35.5 µM [inhibitor, single point]	–
CCCS(=O)(=O)N1CCCC(C(=O)Oc2ccc(Cl)cc2)C1 (configuration not stated)	inconclusive: 3.55 µM [inhibitor, partial curve]	–
CCCC(=O)Nc1nc(-c2ccc3c(c2)CCN3S(C)(=O)=O)cs1	–	inactive: -11.2%
CC(=O)c1ccc(C(=O)N2CCCC(CO)(Cc3ccccc3C)C2)s1 (configuration not stated)	inconclusive: 7.08 µM [inhibitor, single point]	–
Cc1ccc(S(=O)(=O)N(CC(=O)Nc2ccccc2C(=O)O)c2ccccc2C)cc1	–	inactive: -5.13%
CCNC(=O)N1c2ccc(OC)cc2C(C)=CC1(C)C	–	inactive: -2.89%
COc1cc(C)c(C(=O)Oc2cc(C)c(C(=O)O)c(O)c2C)c(OC)c1C	inconclusive: 39.8 µM [inhibitor, single point]	–
N#Cc1ccc(CN2CCC3(CC2)CCN(S(=O)(=O)c2ccccc2)CC3)cc1	–	inactive: -0.358%
Cc1c(C(=O)Nc2ccc(F)cc2)oc2ccc(S(=O)(=O)N3CCCCCC3)cc12	–	inactive: -18.4%
Cc1cc(Br)ccc1N=C1NC(=O)CS1	–	inactive: -10.1%
O=C(Nc1ccc(Cl)cc1)N1CCC(c2nc(-c3cccs3)no2)CC1	inconclusive: 39.8 µM [inhibitor, single point]	–
